# Source: patent publication US10682340B2, “Depot formulations” (DURECT CORPORATION, priority 2016, dated 2020)
# At least one compound was matched to its structure with a doubt left.
# Experiments:
# [1] = Chemical stability of sirolimus in solvents (8 days at room temperature); format: physicochemical; conditions: 8 days at RT
# [2] = Chemical stability of sirolimus in drug release testing medium at 37° C.; format: physicochemical; conditions: PBS, 0.1% SDS
structure (smiles),measurement,setting,value
"CO[C@H]1C[C@@H]2CC[C@@H](C)[C@@](O)(O2)C(=O)C(=O)N2CCCC[C@H]2C(=O)O[C@H]([C@H](C)C[C@@H]2CC[C@@H](O)[C@H](OC)C2)CC(=O)[C@H](C)/C=C(\C)[C@@H](O)[C@@H](OC)C(=O)[C@H](C)C[C@H](C)/C=C/C=C/C=C/1C [Sirolimus, sirolimus]",% SRL Recovered Based on Theoretical Concentration,[1]; Benzyl alcohol (BA),98.1%
same,% SRL Recovered Based on Theoretical Concentration,[1]; Benzyl benzoate (BB),101.8%
same,% SRL Recovered Based on Theoretical Concentration,[1]; Dimethyl sulfoxide (DMSO),101.9%
same,% SRL Recovered Based on Theoretical Concentration,[1]; Ethanol (EtOH),101.8%
same,% SRL Recovered Based on Theoretical Concentration,[1]; N-methyl-2-pyrrolidone (NMP),92.1%
same,% SRL Recovered,"[1]; PEG 400, based on T0 assayed value",104.9^1%
same,% Drug Remained,"[2]; 0.01% BHT, 4 days",82.1%
same,% Drug Remained including all Deg Peaks,"[2]; 0.01% BHT, 4 days",90.6%
same,Concentration,"[2]; 0.01% BHT, 4 days",4700 ng/mL
same,Concentration,"[2]; 0.01% BHT, T0",5720 ng/mL
same,% Drug Remained,[2]; 4 days,82.2%
same,% Drug Remained including all Deg Peaks,[2]; 4 days,93.8%
same,Concentration,[2]; 4 days,4470 ng/mL
same,Concentration,[2]; T0,5440 ng/mL
